No constants are given. Whether binding was seen depends on the method and setting. For some assays here: In cells and extracts the contact can be indirect. Some binding calls cover weakened binding; strength is not graded here.
Columns and labels:
[1] = target: RSV nucleoprotein N, wild type, N-RNA rings (respiratory syncytial virus (RSV)) (UniProt P03418); assay: native gel or EMSA; band shift on native 1% agarose gel; proteins alone or mixed, 30 min at room temperature in 20 mM tris pH 8, 150 mM NaCl; tris-glycine, 80 V, Amido black 10B staining; N-P40 at 10 and 20 μM; both purified
[2] = target: PCTD (residues 163 to 241 of P) fused to glutathione S-transferase (respiratory syncytial virus (RSV)) (UniProt P03421); assay: pull-down; co-purification of N-RNA rings on GST-PCTD from E. coli cotransformed with pGEX-PCT and pET28-N

Protein sequences, listed by entry. Tags and fused reporters are not part of them. Lines headed by an entry give the natural chain unless they say otherwise; changes in a name come on top. Chains listed by the source or under a name are the forms on record and can include a tag or linker. Residues count along the entry.
UniProt P03418: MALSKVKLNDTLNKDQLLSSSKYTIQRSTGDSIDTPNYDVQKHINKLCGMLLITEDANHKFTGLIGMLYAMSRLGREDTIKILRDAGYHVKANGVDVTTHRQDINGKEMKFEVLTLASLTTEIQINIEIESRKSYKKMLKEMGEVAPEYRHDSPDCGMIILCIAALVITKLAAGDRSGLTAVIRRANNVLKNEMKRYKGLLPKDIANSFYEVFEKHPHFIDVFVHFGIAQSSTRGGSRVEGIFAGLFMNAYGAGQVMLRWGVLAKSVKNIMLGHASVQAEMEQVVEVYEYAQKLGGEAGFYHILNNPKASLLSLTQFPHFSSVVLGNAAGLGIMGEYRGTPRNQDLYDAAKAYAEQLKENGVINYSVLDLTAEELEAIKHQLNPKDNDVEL
UniProt P03421: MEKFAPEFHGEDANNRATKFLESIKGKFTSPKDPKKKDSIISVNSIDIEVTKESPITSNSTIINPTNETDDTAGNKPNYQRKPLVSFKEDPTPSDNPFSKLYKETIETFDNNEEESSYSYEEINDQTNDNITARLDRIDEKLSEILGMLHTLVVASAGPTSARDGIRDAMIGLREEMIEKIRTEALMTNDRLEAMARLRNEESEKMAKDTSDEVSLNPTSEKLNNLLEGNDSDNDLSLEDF
PCTD (residues 163 to 241 of P) fused to glutathione S-transferase (respiratory syncytial virus (RSV)): residues 163-241 of P03421

Substance | binding [1] | binding [2]
RSV phosphoprotein P, full length (from UniProt P03421 1-241) | binds | –
RSV nucleoprotein N, wild type, N-RNA rings (from UniProt P03418 1-391) | – | binds
